Laboratory results taken from PMC10659539.
No constants are given. Whether binding was seen depends on the method and setting. Binding seen in cells or lysates may run through a third protein. Some entries that bind do so weakly or less than the wild type.

Protein sequences, listed by entry. Tags and fused reporters are not part of them.
UniProt P43006: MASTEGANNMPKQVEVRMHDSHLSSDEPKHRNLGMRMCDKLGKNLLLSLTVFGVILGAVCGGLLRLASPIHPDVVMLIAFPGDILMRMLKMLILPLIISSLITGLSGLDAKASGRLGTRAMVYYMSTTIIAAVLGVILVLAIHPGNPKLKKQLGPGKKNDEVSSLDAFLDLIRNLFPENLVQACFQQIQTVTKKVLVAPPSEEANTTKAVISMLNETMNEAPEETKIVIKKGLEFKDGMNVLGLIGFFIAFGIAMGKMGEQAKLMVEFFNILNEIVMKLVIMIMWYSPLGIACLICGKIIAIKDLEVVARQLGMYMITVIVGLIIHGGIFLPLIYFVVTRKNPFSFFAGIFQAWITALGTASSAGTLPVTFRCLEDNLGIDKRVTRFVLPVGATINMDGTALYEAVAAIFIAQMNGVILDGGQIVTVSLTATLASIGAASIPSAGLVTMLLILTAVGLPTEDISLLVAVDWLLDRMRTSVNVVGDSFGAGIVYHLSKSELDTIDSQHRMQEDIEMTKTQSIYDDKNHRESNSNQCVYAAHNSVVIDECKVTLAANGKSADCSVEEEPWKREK

Experiments:
[1] = target: GLT-1, endogenous in primary neurons (UniProt P43006); experiment: co-IP; endogenous proteins from lysates of primary neurons and of mouse brain; which antibody precipitated is not given
[2] = target: GLT-1, endogenous in mouse brain (mouse (endogenous in mouse brain)) (UniProt P43006); experiment: as above

binding [1]	binding [2]	Substance
binds	–	PS2, endogenous in primary neurons (from UniProt Q61144 1-448)
–	binds	PS2, endogenous in mouse brain (from UniProt Q61144 1-448)
